## Library screen at single concentrations

Sequences of proteins named here, by UniProt entry; tags and fusion partners are left off. Residues count along the entry.
UniProt P9WFT3, whole entry: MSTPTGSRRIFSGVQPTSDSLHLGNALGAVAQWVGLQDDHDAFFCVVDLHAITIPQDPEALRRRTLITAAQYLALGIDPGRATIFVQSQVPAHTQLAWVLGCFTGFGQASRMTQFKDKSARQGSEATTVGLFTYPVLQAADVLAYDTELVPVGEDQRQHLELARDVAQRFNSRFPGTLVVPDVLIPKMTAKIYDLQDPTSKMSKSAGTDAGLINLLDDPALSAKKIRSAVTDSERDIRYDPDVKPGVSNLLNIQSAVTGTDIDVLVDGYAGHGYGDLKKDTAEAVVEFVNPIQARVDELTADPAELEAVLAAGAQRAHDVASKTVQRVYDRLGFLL
UniProt A4I591, 1-473: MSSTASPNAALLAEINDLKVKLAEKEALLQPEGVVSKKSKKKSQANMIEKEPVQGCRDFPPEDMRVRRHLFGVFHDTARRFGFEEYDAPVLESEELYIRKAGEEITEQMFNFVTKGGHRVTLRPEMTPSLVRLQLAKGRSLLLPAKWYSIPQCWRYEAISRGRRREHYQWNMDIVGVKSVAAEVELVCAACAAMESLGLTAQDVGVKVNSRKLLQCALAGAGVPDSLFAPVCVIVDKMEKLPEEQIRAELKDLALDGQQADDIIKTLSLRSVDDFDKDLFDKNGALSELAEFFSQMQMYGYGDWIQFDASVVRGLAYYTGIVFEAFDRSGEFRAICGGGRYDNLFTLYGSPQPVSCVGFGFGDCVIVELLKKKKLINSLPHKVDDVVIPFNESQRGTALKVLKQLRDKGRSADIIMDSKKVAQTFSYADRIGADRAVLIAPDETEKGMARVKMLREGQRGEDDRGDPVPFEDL

Data taken from ChEMBL document CHEMBL3988442, “University of Dundee, Small-Polar-MMV Screening Library” (2021).

MtTrpRS: 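Enzyme assay of tryptophanyl-tRNA synthetase; the read-out is not stated. Target: Tryptophan-tRNA ligase, Mycobacterium tuberculosis (UniProt P9WFT3). Concentration: 10 µM. Direction is not recorded; retested compounds ran higher, which suggests that high means inhibition. Size under these conditions: about 65,000 compounds, about 64 of them at 50% or above in at least one test.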
LiHisRS: 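Histidine-tRNA ligase, Leishmania infantum (UniProt A4I591). Enzyme assay of histidyl-tRNA synthetase; the read-out is not stated. Concentration: 30 µM. Higher reads as stronger inhibition (inferred: compounds with an IC50 in retests scored well above the rest). The assay is labelled LdHisRS but filed under L. infantum. Size under these conditions: about 69,000 compounds, about 410 of them at 50% or above in at least one test.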

Each number is a percent effect as filed. The controls that fix the scale are not given in the record; negative values are as filed. The compounds are a random part of those screened.

For CC(=O)Nc1nc2c(s1)CN(CC(=O)Nc1ccc(C)c(Cl)c1)CC2 the result was MtTrpRS: 0.4944%; LiHisRS: 23.38%. COc1cc(CNCc2ccc(NC(=O)NC(C)C)cc2)cc(OC)c1 read MtTrpRS: -2.568%; LiHisRS: 28.12%. CCCn1ncc(CN(CCN(C)C)Cc2ccsc2)c1C read MtTrpRS: 1.027%; LiHisRS: -4.167%. O=C(c1cccnc1O)N1CCCN(c2cccnn2)CC1 gave MtTrpRS: 1.058%; LiHisRS: -1.653%.

With COc1ncc(CN2CCOC(Cc3cccc4ccccc34)C2)cn1 (stereo not drawn) the screen gave MtTrpRS: 9.065%; LiHisRS: 0%. For O=C(NCC1(O)CCC1)NC(c1cc(F)ccc1F)C1CC1 (stereo not drawn) the result was MtTrpRS: 2.089%; LiHisRS: 11.71%. CCCOc1ccccc1NCC(=O)Nc1ccc(CC)cc1 read MtTrpRS: 0.3079%; LiHisRS: -3.297%. For CN(Cc1nc(-c2cccs2)no1)Cc1nc2c(s1)CCCC2 the result was MtTrpRS: 0.6937%; LiHisRS: 5.882%.

CN(Cc1cnc2ccccc2c1)C(=O)C(c1ccccc1F)N(C)C (stereo not drawn) read MtTrpRS: -0.3221%; LiHisRS: 9.836%. Cc1noc([C@@]23CCO[C@@H]2CCN(C(=O)CCC(C)C)C3)n1 gave MtTrpRS: 0.6506%; LiHisRS: 5.556%. With Cc1ccc(NC2CCN(C(=O)Cc3c(C)noc3C)CC2)nn1 the screen gave MtTrpRS: -0.416%; LiHisRS: 12.84%. For CNS(=O)(=O)CCCN1CCCN(Cc2ccccc2)CC1C (stereo not drawn) the result was MtTrpRS: 0.5201%; LiHisRS: -19.18%.

CCCc1nc(NCCCOC)c2c(n1)c(C)nn2CC gave MtTrpRS: 1.813%; LiHisRS: -3.448%. Cn1cnc2c1CCN(CCCOc1ccc(C#N)cc1)C2 read MtTrpRS: -4.799%; LiHisRS: -7.865%. With CN1CC(=O)N(c2ccccc2)CC12CCN(C(=O)c1cnccn1)C2 (stereo not drawn) the screen gave MtTrpRS: 14.45%; LiHisRS: 6.944%. With CCOCCN1CCN(CCOC)CC1C (stereo not drawn) the screen gave MtTrpRS: -0.1564%; LiHisRS: 1.653%.

Result for COCCNC(=O)NC1CCN(c2cnn(C)c2)C1 (stereo not drawn) was MtTrpRS: 1.625%; LiHisRS: 7.143%. With NCc1n[nH]c(-c2ccc(F)cc2)n1 the screen gave MtTrpRS: -3.75%; LiHisRS: 15.05%. With Cc1cc(-c2nnn(CCNS(C)(=O)=O)n2)ccc1F the screen gave MtTrpRS: 3.865%; LiHisRS: 9.524%. With Cc1cnn(CC2CCCN2Cc2nnc(C)o2)c1 (stereo not drawn) the screen gave MtTrpRS: -10.6%; LiHisRS: 8.929%.

With COc1ccc(-c2noc(C3CC(C(C)C)=NO3)n2)cc1 (stereo not drawn) the screen gave MtTrpRS: -6.276%; LiHisRS: 14.29%. O=C1NC[C@@]2(C(=O)O)CN(Cc3cccc(C(F)(F)F)c3)C[C@@H]12 read MtTrpRS: 10.9%; LiHisRS: -6.061%. c1ccc(CCCN2CCN(CCn3cncn3)CC2)cc1 read MtTrpRS: 5.623%; LiHisRS: 9.375%. For COc1ccc(-n2ccnc2-c2cnc(N(C)C)nc2)cc1OC the result was MtTrpRS: -0.819%; LiHisRS: 26.76%.

With CCNS(=O)(=O)C1CCN(C(=O)c2ccc(CC)o2)C1 (stereo not drawn) the screen gave MtTrpRS: 0.7498%; LiHisRS: 3.125%. With CC1CCN(C(=O)C2CC(=O)N(c3cnn(C(C)C)c3)C2)CC1 (stereo not drawn) the screen gave MtTrpRS: -2.039%; LiHisRS: 10.34%. With CCOc1ccc(NC(=O)NCCCN(C)S(C)(=O)=O)cc1C the screen gave MtTrpRS: -1.534%; LiHisRS: 6.218%. CCS(=O)(=O)N1CCN(Cc2ccncc2)c2nc(C)ccc2C1 read MtTrpRS: -0.2292%; LiHisRS: 4.587%.

With c1ccc2ncc(CC3CCNCC3)cc2c1 the screen gave MtTrpRS: 1.592%; LiHisRS: 7.092%. CCc1noc(CN2CCCC(Cn3nc(C)nc3C)C2)n1 (stereo not drawn) read MtTrpRS: -3.833%; LiHisRS: 17.54%. Cc1ccc(S(=O)(=O)Nc2cccnc2O)cc1C gave MtTrpRS: 2.828%; LiHisRS: 40.32%. Result for CNC(=O)c1cnc(C)nc1CCNC(=O)CCc1ccccc1 was MtTrpRS: 20.26%; LiHisRS: 7.092%.

For CNC(=O)[C@H]1C[C@H]2OCC[C@H]2N(Cc2cccc3ccccc23)C1 the result was MtTrpRS: -8.049%; LiHisRS: 26.21%. O=C(CCNS(=O)(=O)c1cccnc1)N1CCCCC1 gave MtTrpRS: -8.06%; LiHisRS: 7.937%. CC(C)Nc1nc2c(c(NC3CC3)n1)CN(C(=O)c1ccsc1)CC2 read MtTrpRS: -1.066%; LiHisRS: 18.8%. CN1CCN(C2CCN(CC(=O)NCC(F)(F)F)CC2)C1=O gave MtTrpRS: -1.023%; LiHisRS: 7.865%.

Cc1nccnc1CN1CCC2(CCCN(C3CCOCC3)C2=O)C1 (stereo not drawn) gave MtTrpRS: -0.5757%; LiHisRS: 3.81%. Result for Cc1cn(Cc2nc(CC(C)C)nn2-c2ccccn2)c(=O)[nH]c1=O was MtTrpRS: 2.387%; LiHisRS: 14.67%. For Cn1cc(CN2C[C@H]3CCC[C@@H](CNc4ncccn4)[C@H]3C2)cn1 the result was MtTrpRS: 1.866%; LiHisRS: 16.44%. With O=S(=O)(N1CCN(CC2CC2)CC1)N1CCCC1c1ccco1 (stereo not drawn) the screen gave MtTrpRS: 1.718%; LiHisRS: 5.556%.

O=C(Nc1cccn(Cc2ccccc2)c1=O)c1ccncc1F read MtTrpRS: 10.42%; LiHisRS: 68.57%. For CC(C)(O)CN1CCN(C(=O)c2cc3ccccc3c(=O)[nH]2)CC1 the result was MtTrpRS: -6.886%; LiHisRS: 11.43%. CCN(Cc1ccccn1)Cc1cc(Cl)ccc1OC read MtTrpRS: -0.4571%; LiHisRS: 11.84%.

The last 6 entries again:

compound,MtTrpRS,LiHisRS
Cc1cn(Cc2nc(CC(C)C)nn2-c2ccccn2)c(=O)[nH]c1=O,2.387%,14.67%
Cn1cc(CN2C[C@H]3CCC[C@@H](CNc4ncccn4)[C@H]3C2)cn1,1.866%,16.44%
O=S(=O)(N1CCN(CC2CC2)CC1)N1CCCC1c1ccco1 (stereo not drawn),1.718%,5.556%
O=C(Nc1cccn(Cc2ccccc2)c1=O)c1ccncc1F,10.42%,68.57%
CC(C)(O)CN1CCN(C(=O)c2cc3ccccc3c(=O)[nH]2)CC1,-6.886%,11.43%
CCN(Cc1ccccn1)Cc1cc(Cl)ccc1OC,-0.4571%,11.84%